Our source for the outcome and AC50 values is PubChem BioAssay (EPA / NIEHS).

Protein sequences, listed by entry. Tags and fused reporters are not part of them. Lines headed by an entry give the natural chain unless they say otherwise; changes in a name come on top.
UniProt P06401: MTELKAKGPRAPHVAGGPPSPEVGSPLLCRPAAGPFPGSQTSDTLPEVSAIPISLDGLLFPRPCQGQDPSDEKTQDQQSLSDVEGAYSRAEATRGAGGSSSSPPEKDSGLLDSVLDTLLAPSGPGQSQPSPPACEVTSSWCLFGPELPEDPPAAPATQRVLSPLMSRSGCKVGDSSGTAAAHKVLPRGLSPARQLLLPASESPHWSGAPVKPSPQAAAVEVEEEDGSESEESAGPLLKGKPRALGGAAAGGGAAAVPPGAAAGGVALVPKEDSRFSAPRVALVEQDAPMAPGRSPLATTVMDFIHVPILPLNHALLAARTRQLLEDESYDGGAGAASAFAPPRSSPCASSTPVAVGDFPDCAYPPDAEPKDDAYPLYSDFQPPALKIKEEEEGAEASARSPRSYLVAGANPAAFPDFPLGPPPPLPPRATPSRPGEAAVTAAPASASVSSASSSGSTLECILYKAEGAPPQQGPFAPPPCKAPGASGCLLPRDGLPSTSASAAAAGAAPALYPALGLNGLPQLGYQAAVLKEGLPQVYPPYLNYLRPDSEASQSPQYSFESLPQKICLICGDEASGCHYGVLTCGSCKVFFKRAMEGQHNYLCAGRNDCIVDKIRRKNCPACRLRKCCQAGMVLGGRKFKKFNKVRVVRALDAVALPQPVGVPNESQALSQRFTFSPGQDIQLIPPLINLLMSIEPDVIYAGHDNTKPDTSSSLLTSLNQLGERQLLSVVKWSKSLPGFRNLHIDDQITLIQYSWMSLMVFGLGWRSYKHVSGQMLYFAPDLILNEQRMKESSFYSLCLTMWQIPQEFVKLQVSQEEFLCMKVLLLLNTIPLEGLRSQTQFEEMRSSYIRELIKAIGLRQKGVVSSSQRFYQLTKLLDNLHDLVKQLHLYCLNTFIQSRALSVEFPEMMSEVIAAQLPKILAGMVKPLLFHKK
UniProt Q96RI1: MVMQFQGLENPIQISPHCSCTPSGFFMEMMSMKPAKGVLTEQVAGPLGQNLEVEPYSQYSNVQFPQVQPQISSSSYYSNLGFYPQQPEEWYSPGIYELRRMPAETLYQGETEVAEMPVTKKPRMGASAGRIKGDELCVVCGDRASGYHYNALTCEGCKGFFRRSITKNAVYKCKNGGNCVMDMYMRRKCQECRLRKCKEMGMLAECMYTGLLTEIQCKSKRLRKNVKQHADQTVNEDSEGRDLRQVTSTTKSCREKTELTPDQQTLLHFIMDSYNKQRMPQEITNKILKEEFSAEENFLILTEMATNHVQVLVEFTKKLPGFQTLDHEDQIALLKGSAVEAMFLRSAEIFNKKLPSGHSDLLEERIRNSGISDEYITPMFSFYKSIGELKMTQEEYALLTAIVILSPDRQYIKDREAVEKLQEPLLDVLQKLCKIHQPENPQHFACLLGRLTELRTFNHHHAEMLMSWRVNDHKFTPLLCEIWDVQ
UniProt P37231: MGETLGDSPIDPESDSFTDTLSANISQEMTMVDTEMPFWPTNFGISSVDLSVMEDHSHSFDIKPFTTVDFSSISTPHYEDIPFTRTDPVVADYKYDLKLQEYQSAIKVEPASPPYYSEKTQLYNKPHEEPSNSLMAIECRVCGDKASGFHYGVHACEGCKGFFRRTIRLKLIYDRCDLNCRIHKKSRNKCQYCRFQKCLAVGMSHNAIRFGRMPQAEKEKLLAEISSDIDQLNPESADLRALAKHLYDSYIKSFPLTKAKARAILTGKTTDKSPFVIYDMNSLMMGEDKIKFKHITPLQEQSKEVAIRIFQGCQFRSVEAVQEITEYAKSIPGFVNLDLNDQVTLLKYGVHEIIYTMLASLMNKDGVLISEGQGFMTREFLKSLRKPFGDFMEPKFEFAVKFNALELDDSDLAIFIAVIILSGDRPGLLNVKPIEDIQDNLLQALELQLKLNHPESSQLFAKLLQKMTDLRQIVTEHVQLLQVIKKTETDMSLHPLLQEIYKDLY
UniProt P10415, whole entry, looked up: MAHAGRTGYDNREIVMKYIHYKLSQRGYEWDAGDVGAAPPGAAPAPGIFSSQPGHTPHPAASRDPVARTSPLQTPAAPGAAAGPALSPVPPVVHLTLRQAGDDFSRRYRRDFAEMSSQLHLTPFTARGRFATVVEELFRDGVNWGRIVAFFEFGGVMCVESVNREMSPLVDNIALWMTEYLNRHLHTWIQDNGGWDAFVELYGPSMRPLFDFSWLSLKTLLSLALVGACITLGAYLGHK

One assay deals with PGR (gene 5241) (UniProt P06401). The experiment in a line: NVS_NR_hPR: NovaScreen (NVS) Nuclear Receptor Binding Assay for human Progestron Receptor (PR) (AID 2283360; active = hit-call score of the fitted dose curve at least 0.9, where 1 is the maximum;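 note: active means loss of bound radioligand signal versus DMSO baseline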). The essentials: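 Cell-free radioligand binding using receptor protein extracted from T47D cells, read by scintillation counting 18 hours after dosing. Loss of signal relative to DMSO baseline indicates displacement; primary screen single concentration 25 uM in duplicate, actives followed in concentration series.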

Assay [1] addresses Bile acid receptor (Homo sapiens) (UniProt Q96RI1). Put plainly: OT_FXR_FXRSRC1_0480: Odyssey Thera (OT) 8-hour HEK293T Protein-Complementation Assay for Farnesoid X receptor/SRC-1 Co-activator (AID 2283383; active = hit-call score of the fitted dose curve at least 0.9, where 1 is the maximum). In a few lines:
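Readings were taken 8 h after dosing HEK293T cells in a split-reporter complementation format pairing FXR with SRC-1. Increased fluorescence relative to DMSO-treated wells defined activity.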

Assay [2] has as its target Peroxisome proliferator-activated receptor gamma (Homo sapiens) (UniProt P37231). The experiment in a line: OT_PPARg_PPARgSRC1_0480: Odyssey Thera (OT) 8-hour Protein-Complementation Assay for Peroxisome Proliferator-activated Receptor Gamma / SRC-1 Co-activator (AID 2283387; active = hit-call score of the fitted dose curve at least 0.9, where 1 is the maximum;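 note: nuclear to cytoplasmic split Venus YFP fluorescence ratio reporting PPARg SRC-1 interaction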). In a few lines: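 Read-out: 488 nm N/C fluorescence ratio from complemented Venus YFP fragments, ≥350 cells per image, gain-of-signal fitted against DMSO baseline. Fusions of PPARg/SRC-1 with IFP1/IFP2 expressed transiently in HEK293T; compounds applied 8 h.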

Assay [3] can be described thus: CEETOX_H295R_OHPROG: CeeTox H295R High-throughput Steroidogenesis Assay for OH-Progesterone (OHPROG) (AID 2283435).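 Note: human adrenal H295R cells primed 48 h with 10 µM forskolin; 17alpha-hydroxyprogesterone secreted into medium measured by HPLC-MS/MS.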 The conditions noted are these: actives raise or lower the signal. As for the experimental part: CEETOX_H295R is a cell-based, multiplexed-readout assay that uses H295R, a human adrenal gland cell line, with measurements taken at 48 hours after chemical dosing in a 96-well plate.CEETOX_H295R_OHPROG is one of 23 assay component(s) measured or calculated from the CEETOX_H295R assay. It is designed to make measurements of hormone induction, a form of inducible reporter, as detected with absorbance signals by HPLC-MS-MS technology.Data from the assay component CEETOX_H295R_OHPROG was analyzed into 1 assay endpoint. This assay endpoint, CEETOX_H295R_OHPROG, was analyzed with bidirectional fitting relative to DMSO as the negative control and baseline of activity. Using a type of inducible reporter, gain or loss-of-signal activity using HPLC-MS-MS was used to understand synthesis of 17alpha-hydroxyprogesterone in H295R cell line at 48hr of chemical exposure. To generalize the intended target to other relatable targets, this assay endpoint is annotated to the steroid hormone intended target family, where the subfamily is progestagens.
Cell culture and media preparation procedures were conducted in accordance with OECD Test No. 456 guidelines, with minor modifications. H295R cells (ATCC CRL-2128) were expanded for 5 passages and frozen in batches in liquid nitrogen. Prior to the steroidogenesis assay, H295R cells were thawed and passed at least 4 times. The maximum passage was 10. Cells were maintained in a 1:1 mixture of DMEM/F12 supplemented with 5ml/L ITS+ Premix (BD Bioscience) and 12.5 ml/L Nu-Serum (BD Bioscience). After seeding cells into 96-well plates at 50-60% confluency, cells were allowed to adhere overnight. Prior to chemical testing, culture medium was replaced with 175 uL medium containing 10 uM forskolin to stimulate steroidogenesis for 48 hours. Following prestimulation, forskolin medium was replaced with medium containing test chemical solubilized in DMSO (ensuring a final concentration of 0.1% DMSO). Test chemicals were incubated for 48 hours, then the medium was removed and split into 2 vials containing approximately 75uL each, and stored at -80 C prior to hormone analysis. For steroid quantification, media samples were shipped to OpAns, LLC (Durham, NC) on dry ice, and samples were thawed to room temperature prior to liquid-liquid extraction. Steroid hormones were extracted from media samples using methyl tertbutyl ether (MTBE). An extra derivatization with dansyl chloride was included for estrogen (estrone and estradiol) detection only. Steroid hormones were separated by HPLC, eluted using a reverse phase C18 gradient with electrospray positive ionization, followed by quantification by tandem mass spectrometry (MS/MS). Data were acquired on a MassHunter Workstation Acquisition version B03.01 (Agilent Technologies, Inc.) and processed using MassHunter Quantitative Analysis for QQQ. Accuracy was determined for each hormone analyte from 3 standards to determine upper and lower limits of quantification (ULOQ and LLOQ, respectively) using a 7-point standard curve. Precision and accuracy of the extraction and quantification methods were calculated as the percent relative standard deviation (%RSD) of the spiked standards and percent spiked standard recovered, respectively. The goal was to achieve 100% accuracy (i.e., recover all spiked-in standard at quantification with minimal loss during run time) and good precision (i.e., have %RSD <15% to ensure reproducibility). Test medium was removed following chemical exposure, and cell viability was evaluated in the same wells by MTT. MTT procedures were as follows: after removal of test medium, 500 uL of 0.5 mg/ml of 3-[4,5-dimethylthiazol-2-y]2,5-diphenyltetrazoliumbromide solution was added to the cells. Following a 4-hour incubation at 37 C and 5% CO2 to allow formazan-crystal formation, the MTT solution was removed and blue formazan salt crystals were solubilized using 500uL anhydrous isopropanol with shaking for 20 minutes. […]

The nature of assay [4]: CEETOX_H295R_PROG: CeeTox H295R High-throughput Steroidogenesis Assay for Progesterone (PROG) (AID 2283442).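 Note: human H295R adrenal cells primed with 10 µM forskolin before dosing.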 The conditions noted are these: actives raise or lower the signal. The essentials:
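Progesterone secreted by human H295R cells was measured by LC-MS/MS following 48 h chemical exposure at 0.1% DMSO, preceded by 48 h forskolin (10 uM) stimulation. Same-well MTT viability; cytotoxic concentrations diluted 10- or 100-fold and retested.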

Read-out in assay [5]: ABC Transporter (ABCC2), ABCC2 (gene 1244)
Put plainly: LTEA_HepaRG_ABCC2: Life Technologies and Expression Analysis (LTEA) Assay for ABC Transporter (ABCC2) using HepaRG (AID 2283464). The conditions noted are these: actives raise or lower the signal; mRNA level, 48 h. In a few lines:
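Endpoint is ABCC2 transcript level from qRT-PCR, normalized to three housekeeping genes and fitted bidirectionally relative to DMSO. Human HepaRG cells received test chemical for 48 h at up to 100 uM (8 points, half-log steps, 0.5% DMSO), duplicate wells.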

Read-out in assay [6]: Apoptosis regulator Bcl-2 (Homo sapiens) (UniProt P10415)
The experiment in a line: LTEA_HepaRG_BCL2: Life Technologies and Expression Analysis (LTEA) Assay for Bcl-2 gene using HepaRG (AID 2283475).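 Note: BCL2 transcript by TaqMan qRT-PCR normalised to ACTB GAPDH and POLR2A.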 The following applies: actives raise or lower the signal; mRNA level, 48 h. The essentials:
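Each chemical was tested in duplicate on HepaRG cultures held in serum-free induction medium for 48 h, highest concentration 100 uM with half-log dilutions. Transcript levels came from multiplexed qRT-PCR, normalised to housekeeping genes; activity was scored in either direction relative to DMSO.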

Read-out in assay [7]: Insulin Like Growth Factor 1 (IGF1), IGF1 (gene 3479)
The experiment in a line: LTEA_HepaRG_IGF1: Life Technologies and Expression Analysis (LTEA) Assay for Insulin Like Growth Factor 1 (IGF1) using HepaRG (AID 2283506). The conditions noted are these: actives raise or lower the signal; mRNA level, 48 h. The essentials: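 Endpoint: IGF1 mRNA change by qRT-PCR, housekeeping-normalized, fitted bidirectionally relative to 0.5% DMSO vehicle. Human HepaRG cells were treated 48 h in serum-free induction medium, eight half-log concentrations topping at 100 uM.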

Assay [8] can be described thus: Tanguay_ZF_120hpf_SOMI_legacy: (Legacy) Oregon State University Tanguay Lab 120 Hour Post-fertilization zebrafish Assay for Somite Malformation (AID 2283647; active = hit-call score of the fitted dose curve at least 0.9, where 1 is the maximum). In a few lines: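 Binary somite-defect scoring at 120 hpf, omitted for embryos that died, in wild-type (Tropical 5D) zebrafish with chorion removed by pronase at 4 hpf; static exposure began 6 hpf, single embryos per well, 28C, 0.64% DMSO; fitted positive versus DMSO.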

Read-out in assay [9]: sulfotransferase (SULT2A), SULT2A1 (gene 6822)
Put plainly: CLD_SULT2A_48hr: CellzDirect (CLD) Gene Expression Assay for sulfotransferase (SULT2A) at 48 hours (AID 2283710; active = hit-call score of the fitted dose curve at least 0.9, where 1 is the maximum;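 note: hits raise SULT2A1 transcript above the 0.2% DMSO vehicle baseline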). The essentials:
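SULT2A1 transcript measured by qNPA chemiluminescence in human primary hepatocyte cultures after 48 h, with fresh dosing solutions on two consecutive days; gain-of-signal fitting against 0.2% DMSO vehicle; cytotoxicity annotated from phase-contrast morphology.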

The nature of assay [10]: ACEA_AR_agonist_AUC_viability: ACEA Biosciences xCELLigence Real-Time Cell Analysis on Androgen Receptor Agonism for Viability (AID 2283775; active = hit-call score of the fitted dose curve at least 0.9, where 1 is the maximum). The essentials:
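Viability endpoint from xCELLigence impedance in 22Rv1 prostate cells at 80 h. Eight-point series, 100 uM maximum final.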

Assay [11] is described as follows: CCTE_Shafer_MEA_acute_network_burst_percentage: CCTE's Neural Acute Assay for Percentage of Network Bursts, Shafer Lab (AID 2284022).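 Note: rat primary cortical neuron networks on multiwell MEA recorded 40 min; curves fitted for loss so actives lower network burst percentage.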 The essentials:
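Network burst percentage (spikes in network bursts divided by total spikes) recorded at 37 C over 40 min baseline and 40 min after compound, 0.03-40 uM, in rat cortical cultures at DIV 13 or 15. Analysed as percent change from baseline versus DMSO.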

The nature of assay [12]: CCTE_Shafer_MEA_dev_interburst_interval_mean: CCTE's Neural Network Formation Assay for Mean Interburst Interval, Shafer Lab (AID 2284046).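 Note: well-mean interburst interval of bursting electrodes as AUC over four recording days; curve fitted for decrease in interburst interval relative to DMSO.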 In a few lines: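 Rat cortical neurons, 1.5 x 10^5 cells/well, 48-well MEA; compound from day 0 through DIV 12, media and treatment renewed DIV 5/9. Recordings DIV 5, 7, 9, 12; well-mean interburst interval → trapezoidal AUC, loss direction vs DMSO.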

The nature of assay [13]: BSK_BT_PBMCCytotoxicity: PBMC Cytotoxicity Assessment in the BioMAP Diversity Plus: BT Assay (AID 2284225).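 Note: PBMC viability measured by Alamar Blue dye reduction fluorescence.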 The following applies: primary human B cells with PBMC. In a few lines:
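Primary human co-culture of B cells and PBMC, pre-dosed 1 h then activated with SEB and TSST-1. Cytotoxicity is taken from Alamar Blue dye reduction, added for 6 h at the end of a 90 h incubation.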

Read-out in assay [14]: Secreted IgG (sIgG), gene 3500
The experiment in a line: BSK_BT_sIgG: BioMAP Diversity Plus: BT Assay for Secreted IgG (sIgG) Biomarker Activity (AID 2284226). The conditions noted are these: primary human B cells with PBMC. The essentials:
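In this multiplexed co-culture system, ELISA quantifies sIgG 24 h post-treatment. Endpoint analysis uses positive fitting direction, DMSO negative control.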

Read-out in assay [15]: Vascular cell adhesion molecule 1 (VCAM1), VCAM1 (gene 7412)
Put plainly: BSK_MyoF_VCAM1: BioMAP Diversity Plus: MyoF Assay for Vascular cell adhesion molecule 1 (VCAM1) Biomarker Activity (AID 2284231). The following applies: primary human lung fibroblasts. The essentials: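 ELISA readout of VCAM-1 on human lung fibroblast cultures 24 hours after dosing, analyzed for signal gain relative to DMSO. Overt cytotoxicity was checked by sulforhodamine B total-protein staining in parallel cultures.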

For some of these results: Most of the hits are listed elsewhere, so they are rarer here than in the full data. Records with an inconclusive call do not appear. More than one record can exist for a structure, and the calls need not agree. The entries are a selection whose mix differs from that of the whole data set. Calls of active or inactive are those of the source. Rule for the calls, unless noted: active = hit-call score of the fitted dose curve at least 0.9, where 1 is the maximum; inactive = score below 0.9.

For `ClC1C(Cl)C(Cl)C(Cl)C(Cl)C1Cl` (stereo unspecified), the compound was classed as inactive (in the assay with PGR (gene 5241); in [2]; in [6]; in [7]; in assay [8]; in assay [10]). Moreover, the compound was classed as inactive in assay [11], in assay [12] and in [13]. Further, the AC50 is active: 50 µM in assay [1]; active: 35.6 µM in assay [3]; active: 17.5 µM in assay [4]; active: 1.33 µM in assay [5]; active: 2.16 µM in assay [9]; active: 20 µM in assay [14]. Besides, in assay [15], the half-maximal activity concentration (AC50) was active: 14.1 µM.

Broadly, the AC50 is the midpoint of the concentration-response curve, whichever way the signal moves.
